# Data as given in PubChem BioAssay AID504764 (Drosophila RNAi Screening Center, 2011).
# Aim: 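Genes whose knock-down alters Notch-dependent transcription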 (primary screen)
# Cell system: Drosophila Kc167 cells
# Knock-down reagent: long dsRNA against Drosophila genes
# Timing: about 5 days (4 days dsRNA, then 24 h after transfection)
# Conditions: transfection of constitutively active membrane-tethered Notch lacking the extracellular domain, read 24 h later
# Detection: 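Light from a Notch-responsive E(spl)m3 luciferase reporter under active Notch, with control-promoter and no-Notch reporter wells to normalise; raw counts from paired wells a and b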
# Reading the numbers: induced reporter light, run 1, well a and induced reporter light, run 1, well b: higher = more light from the Notch target reporter with active Notch; control promoter light, run 1, well a and control promoter light, run 1, well b: higher = more light from the viral control promoter (cell number, transfection, viability); uninduced reporter light, run 1, well a: higher = more light from the Notch target reporter without active Notch
# Active means: 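Hit if the duplicate-averaged log2 ratio of induced to control-promoter light gives a plate-wise z beyond ±2, or induced to uninduced beyond ±1.8; weak-control or discordant-duplicate wells dropped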
# Calls: active = modifier hit (raised or lowered Notch signal); inactive = not a hit
# In all, the deposit lists about 22,000 reagents; this is a random part of those with a known target gene and a result. Of all reagents, 403 (1.9%) are marked active. 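Unnormalised raw counts per well; ratio z-scores behind the hit calls and whether each hit raises or lowers signal are not deposited.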 Not given: the amount of reagent.
gene,DRSC id,"induced reporter light, run 1, well a","induced reporter light, run 1, well b","control promoter light, run 1, well a","control promoter light, run 1, well b","uninduced reporter light, run 1, well a",Outcome
CG4781,DRSC04488,1.79e5,1.34e5,1.43e5,1.79e5,12160,inactive
ND-MWFE (NADH dehydrogenase (ubiquinone) MWFE subunit),DRSC06364,1.02e5,1.33e5,1.20e5,1.55e5,9940,inactive
CG31495,DRSC16762,1.61e5,1.90e5,1.76e5,1.96e5,15640,inactive
CG8501,DRSC07198,84960,90735,77755,66880,7785,inactive
Mrtf (Myocardin-related transcription factor),DRSC08263,11155,12178,22045,22900,3990,inactive
Mrtf (Myocardin-related transcription factor),DRSC08410,60025,47050,56280,62925,4795,inactive
Mrtf (Myocardin-related transcription factor),DRSC08411,1.08e5,1.04e5,1.77e5,1.62e5,5455,inactive
CG14448,DRSC11705,1.17e5,1.04e5,1.29e5,1.24e5,7582,inactive
CG4891,DRSC01936,1.84e5,1.80e5,1.66e5,1.67e5,13910,inactive
CG5122,DRSC02816,1.38e5,1.40e5,1.33e5,1.50e5,12000,inactive
CG3078,DRSC18531,62065,71815,56490,70130,7630,inactive
kermit,DRSC06074,1.79e5,1.77e5,1.52e5,1.36e5,12000,inactive
RagC-D (Ras-related GTP binding C/D),DRSC07239,1.15e5,1.22e5,1.41e5,1.26e5,9410,inactive
CG33631,DRSC12763,1.68e5,1.43e5,1.61e5,1.30e5,12815,inactive
Cchl (Cytochrome c heme lyase),DRSC15949,69080,65795,89740,89920,5690,inactive
nkt (noktochor),DRSC10144,1.51e5,1.42e5,2.06e5,1.43e5,7875,inactive
CG10494,DRSC04072,2.29e5,2.50e5,2.15e5,2.52e5,20490,inactive
CG17261,DRSC00498,1.77e5,1.31e5,1.91e5,1.53e5,11230,inactive
Ag5r2 (Antigen 5-related 2),DRSC19328,84105,1.04e5,95930,1.09e5,11785,inactive
D19B,DRSC11134,1.65e5,2.03e5,2.25e5,2.22e5,10205,inactive

3 neighbouring reagents already listed:
gene,DRSC id,"induced reporter light, run 1, well a","induced reporter light, run 1, well b","control promoter light, run 1, well a","control promoter light, run 1, well b","uninduced reporter light, run 1, well a",Outcome
CG4891,DRSC01936,1.84e5,1.80e5,1.66e5,1.67e5,13910,inactive
CG5122,DRSC02816,1.38e5,1.40e5,1.33e5,1.50e5,12000,inactive
CG3078,DRSC18531,62065,71815,56490,70130,7630,inactive
